Positions count from the first letter of the chain named. These are yes or no findings as the source states them, for the method shown. Binding seen in cells or lysates may run through a third protein. Some results given as binding are weak or reduced against the parent protein; the word gives no strength.
Legend:
[1] = biological target: T1, ALFA-CD53 F44E ("closed" CD53) (UniProt P19397); test: proximity ligation; proximity ligation assay between ALFA-tagged tetraspanin (WT or mutant) and the endogenous partner in transfected KO BJAB cells; details in the Supporting Information
T1 sequence: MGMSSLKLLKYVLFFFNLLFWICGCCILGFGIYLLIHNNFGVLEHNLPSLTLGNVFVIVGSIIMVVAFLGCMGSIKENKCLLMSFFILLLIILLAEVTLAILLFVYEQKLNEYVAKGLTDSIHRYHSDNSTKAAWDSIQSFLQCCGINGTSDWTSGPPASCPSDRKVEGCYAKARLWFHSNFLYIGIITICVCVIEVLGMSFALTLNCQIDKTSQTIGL

By UniProt entry, the sequences of proteins in these tests, tags left out. Residues count along the entry.
UniProt P08575, residues 26-1306: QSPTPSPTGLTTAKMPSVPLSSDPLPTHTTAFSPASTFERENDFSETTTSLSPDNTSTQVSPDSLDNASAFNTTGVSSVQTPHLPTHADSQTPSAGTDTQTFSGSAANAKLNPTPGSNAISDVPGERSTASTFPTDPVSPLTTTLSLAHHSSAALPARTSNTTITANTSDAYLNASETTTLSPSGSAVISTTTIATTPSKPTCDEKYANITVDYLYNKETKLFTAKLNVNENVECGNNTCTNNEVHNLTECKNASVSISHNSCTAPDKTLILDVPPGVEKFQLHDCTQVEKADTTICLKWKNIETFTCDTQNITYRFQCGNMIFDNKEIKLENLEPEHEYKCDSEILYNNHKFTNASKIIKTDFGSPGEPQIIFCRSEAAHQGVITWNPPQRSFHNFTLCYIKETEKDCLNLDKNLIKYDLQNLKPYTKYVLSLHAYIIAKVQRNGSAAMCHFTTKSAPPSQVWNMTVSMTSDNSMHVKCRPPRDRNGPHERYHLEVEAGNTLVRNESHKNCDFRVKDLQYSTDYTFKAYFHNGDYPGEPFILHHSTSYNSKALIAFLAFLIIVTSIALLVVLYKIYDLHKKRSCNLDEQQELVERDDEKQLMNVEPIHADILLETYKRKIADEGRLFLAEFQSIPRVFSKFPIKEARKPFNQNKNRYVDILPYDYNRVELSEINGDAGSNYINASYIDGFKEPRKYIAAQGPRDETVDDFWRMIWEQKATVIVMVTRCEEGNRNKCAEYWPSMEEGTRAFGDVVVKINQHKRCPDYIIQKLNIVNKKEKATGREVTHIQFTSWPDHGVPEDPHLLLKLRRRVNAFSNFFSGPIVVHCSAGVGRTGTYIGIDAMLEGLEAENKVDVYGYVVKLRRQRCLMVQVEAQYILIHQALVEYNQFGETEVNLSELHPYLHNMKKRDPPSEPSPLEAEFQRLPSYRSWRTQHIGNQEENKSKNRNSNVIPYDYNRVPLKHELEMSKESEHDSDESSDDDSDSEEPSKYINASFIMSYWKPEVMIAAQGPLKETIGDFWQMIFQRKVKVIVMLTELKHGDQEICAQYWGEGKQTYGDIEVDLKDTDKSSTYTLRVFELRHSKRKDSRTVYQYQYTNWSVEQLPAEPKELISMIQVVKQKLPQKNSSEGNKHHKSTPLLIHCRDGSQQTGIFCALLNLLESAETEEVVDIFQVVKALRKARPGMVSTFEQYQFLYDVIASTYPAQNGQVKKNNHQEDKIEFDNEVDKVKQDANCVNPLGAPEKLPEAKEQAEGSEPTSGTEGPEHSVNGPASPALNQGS

[2] = biological target: T1, ALFA-CD53 F44E ("closed" CD53); test: co-IP; IP of ALFA-tagged tetraspanin (WT or mutant) from transfected KO BJAB cells, blot for the endogenous partner; signal of the co-precipitated partner divided by the signal of the precipitated tetraspanin, normalised to WT
ALFA-CD53 WT = biological target: T2, ALFA-CD53 WT (UniProt P19397); test: as above
T2 sequence: T1 sequence with E44F

Measured: binding

CD45 (from UniProt P08575 26-1306)
binds: all assays above

— paper PMC11416636
